The list shows a part of the results.
target: OsWRKY34 (Oryza sativa, UniProt Q0JBA9 1-250); test: protein-binding microarray (RPBM); PBS, 2% BSA, 51.3 ng/ul salmon testes DNA, 50 uM zinc acetate, 200 nM TF, 25 C, 1 h; high values mean tight binding; settings: protein: recombinant; tags: N-terminal polyhistidine and DsRed monomer fusion (pET32a); label: CyDye5-dUTP incorporated in the synthesized complementary strand; 3' TTTTT single-stranded linker to array surface; dsDNA, one strand shown
Outline: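 A custom Agilent array was converted to double-stranded form by primer extension with Cy5-dUTP and blocked with 2% BSA. Protein at 200 nM in PBS with 2% BSA, salmon testes DNA and 50 µM zinc acetate was applied for 1 h at 25 °C, followed by washing. The proteins were polyhistidine–DsRed N-terminal fusions of transcription factors, expressed in E. coli BL21-CodonPlus and Ni–NTA-purified. The binding signal is per-feature fluorescence intensity (arbitrary units) from an Axon 4000B scanner.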

Protein sequences, listed by entry. Tags and fused reporters are not part of them.
UniProt Q0JBA9, entry or part of it: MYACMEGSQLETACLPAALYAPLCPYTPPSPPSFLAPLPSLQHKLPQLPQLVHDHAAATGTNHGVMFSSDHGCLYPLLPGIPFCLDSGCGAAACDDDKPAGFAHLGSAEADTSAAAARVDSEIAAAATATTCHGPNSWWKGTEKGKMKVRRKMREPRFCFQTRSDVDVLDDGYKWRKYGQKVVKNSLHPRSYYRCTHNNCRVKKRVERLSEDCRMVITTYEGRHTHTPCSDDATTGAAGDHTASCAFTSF

Sequence | binding signal
CACTCATTCCATTCCCCAACCCCAACCATTCCTATTTCTACGGAGTCACCTAGTGCAG | 8510 fluorescence intensity (a.u.)
AAACATTAGGTGGGGTGGATTTTTTCCATGTGTTATGTTTCGGAGTCACCTAGTGCAG | 8620 fluorescence intensity (a.u.)
AACTCTTCACTCTCGTAGGCGATCTCGATCTTAACATGCTCGGAGTCACCTAGTGCAG | 9300 fluorescence intensity (a.u.)
ATCATTTGTCTCGCGACGAAAACTTGCGTTGACCACCCACCGGAGTCACCTAGTGCAG | 17500 fluorescence intensity (a.u.)
CTCTCATGTATATACATTAATTATGTTTTTGTCCCCATTTCGGAGTCACCTAGTGCAG | 9950 fluorescence intensity (a.u.)
AGGTACCTTTTGGTTGGGAAGATGTTTCATCTCCTGTCATCGGAGTCACCTAGTGCAG | 8190 fluorescence intensity (a.u.)
GTGGGTGGAAGGCTAGAAGGCGATGGGCGCGGTGGATTCCCGGAGTCACCTAGTGCAG | 11300 fluorescence intensity (a.u.)
GCATTTCATTTGATTTAACACTTTTACCCCTTATCTCCAACGGAGTCACCTAGTGCAG | 9130 fluorescence intensity (a.u.)
TATCATTTACTCATTGTAACGCACGTGTATTTTTTCTAGGCGGAGTCACCTAGTGCAG | 9880 fluorescence intensity (a.u.)
ACCGATTGTCCGATTCGAGTTTCTTAATTTGTCTTTTTTTCGGAGTCACCTAGTGCAG | 12000 fluorescence intensity (a.u.)
AGAGTTTAAATGTGTCTTTTTGGTGGGTAGAAAATTATTTCGGAGTCACCTAGTGCAG | 10400 fluorescence intensity (a.u.)
TTTCTTATCTGTAGTCCTATTTTTTCCCGAGAAATTAATCCGGAGTCACCTAGTGCAG | 8670 fluorescence intensity (a.u.)
ACCGTGACCGTGCGCTTCTCGCCTTTCGCCTTCGCCTCCACGGAGTCACCTAGTGCAG | 9350 fluorescence intensity (a.u.)
GCGTCTGGGGCCTCGGGCGGCGCGCGCGGGGAGGGGCGTGCGGAGTCACCTAGTGCAG | 10500 fluorescence intensity (a.u.)
AGATGGCATTCCCAGTTTAGTCATGTACACCGTAGCCGTACGGAGTCACCTAGTGCAG | 8360 fluorescence intensity (a.u.)
TCCGTTTCCATTCCCTGGCACACGCCATTCGCCTCGCTTGCGGAGTCACCTAGTGCAG | 10800 fluorescence intensity (a.u.)
AGTCAAACACATATTGACCAACCAACCCCTGCATTGACCTCGGAGTCACCTAGTGCAG | 8320 fluorescence intensity (a.u.)
CTTTTACATAAATGTGAAGTTCTTTTTTTTTTGCGGGGATCGGAGTCACCTAGTGCAG | 8500 fluorescence intensity (a.u.)
GTCCATCGCCGCGACCCACGCCACCACCGTTACGGACATCCGGAGTCACCTAGTGCAG | 9510 fluorescence intensity (a.u.)
CACAGATCATTACACACTGTTTGAGCATCTCTCTATTCCTCGGAGTCACCTAGTGCAG | 8320 fluorescence intensity (a.u.)
TTCCTACATTTTCACTCCTACTAGCTAGCACGTGAAGAAACGGAGTCACCTAGTGCAG | 8750 fluorescence intensity (a.u.)
TACATCCCTTGCCATCTCCATCGCCGGCTTCCTCGCCATTCGGAGTCACCTAGTGCAG | 17100 fluorescence intensity (a.u.)
CCGGCGACGTGGTCGCGCATTCCTCTTCTCGCCGGCAGACCGGAGTCACCTAGTGCAG | 8080 fluorescence intensity (a.u.)
CCTCATCTTCTCACCGTTGCCGTCTTTGTGGTGAAGCCGGCGGAGTCACCTAGTGCAG | 8540 fluorescence intensity (a.u.)
GGTTCCCACTACACTACGCCTTTCTACTGGGCTCTTCATGCGGAGTCACCTAGTGCAG | 8960 fluorescence intensity (a.u.)
CTTGCTCGGTTTCTTTCTCCCGCGGACACTGAAACCCAACCGGAGTCACCTAGTGCAG | 8520 fluorescence intensity (a.u.)
TTTCCTTGAACCAGCACTGACATTTTACCATGTGTTCATTCGGAGTCACCTAGTGCAG | 10700 fluorescence intensity (a.u.)

Three neighbouring records from above, quoted:
Sequence | binding signal
AGGTACCTTTTGGTTGGGAAGATGTTTCATCTCCTGTCATCGGAGTCACCTAGTGCAG | 8190 fluorescence intensity (a.u.)
GTGGGTGGAAGGCTAGAAGGCGATGGGCGCGGTGGATTCCCGGAGTCACCTAGTGCAG | 11300 fluorescence intensity (a.u.)
GCATTTCATTTGATTTAACACTTTTACCCCTTATCTCCAACGGAGTCACCTAGTGCAG | 9130 fluorescence intensity (a.u.)

Following part.

Sequence | binding signal
ACCGGATCGCATCACACTCGCAGCCAACTCGAAGCAGCAACGGAGTCACCTAGTGCAG | 8140 fluorescence intensity (a.u.)
CGTATTTTGATATATAACGTTGTTTACTTTTTGAGATATACGGAGTCACCTAGTGCAG | 8650 fluorescence intensity (a.u.)
AAGTTTGTTCTTTTTGGAAATACAGTTCCGTATTTAAGTCCGGAGTCACCTAGTGCAG | 8260 fluorescence intensity (a.u.)
TCTTCTCTTCTCTTCTCTTCTCTTCCATCTCCTAATCTTCCGGAGTCACCTAGTGCAG | 8620 fluorescence intensity (a.u.)
TTCTCTCTCTAAAGCTATTTTCTCTCTCTCTCTGTGCTGTCGGAGTCACCTAGTGCAG | 8600 fluorescence intensity (a.u.)
CTATTTTCAGCTATAGTTTTTGTCACCATCTAGTTATTATCGGAGTCACCTAGTGCAG | 10200 fluorescence intensity (a.u.)
TATACCTGCTTTGCTCGTCGCACGTTAGATTATCCCAACTCGGAGTCACCTAGTGCAG | 11000 fluorescence intensity (a.u.)
GTAATTAATCTACCATGGCATTTGGCGCGCCTAGTATTTACGGAGTCACCTAGTGCAG | 10400 fluorescence intensity (a.u.)
GAAGCCTTCATATCAATCTGTCATACACATACAACTTTTCCGGAGTCACCTAGTGCAG | 8380 fluorescence intensity (a.u.)
AGAGTTATATCTCCCACCTCTCCCGCCGCGACCCAAGTCTCGGAGTCACCTAGTGCAG | 9310 fluorescence intensity (a.u.)
TCGTTTCATCCTGCTGTCACCACGTAGTAACTCGTTTTCCCGGAGTCACCTAGTGCAG | 10900 fluorescence intensity (a.u.)
CTCCAACCACCCCTAGACACGTGTCCAGAGAATCTCTAACCGGAGTCACCTAGTGCAG | 8170 fluorescence intensity (a.u.)
TATCTCCAAGGTTTTGGGCTTTGCAATTTTTGGCGGTAACCGGAGTCACCTAGTGCAG | 10200 fluorescence intensity (a.u.)
TCCCGGATGGCTCTCATCGCCGGCTCCTACGAGCGCTTCACGGAGTCACCTAGTGCAG | 9840 fluorescence intensity (a.u.)
TCCCAGCCAGCCGCGGAGCCGCTTCTACTCCCACGCCTCTCGGAGTCACCTAGTGCAG | 10700 fluorescence intensity (a.u.)
TACCTTCCTTAACTATTGCACAGGTTCAAATCGTATCCCTCGGAGTCACCTAGTGCAG | 8730 fluorescence intensity (a.u.)
TGATATACTATCCATCACTGTTAACTGTTCACCATTCATACGGAGTCACCTAGTGCAG | 9170 fluorescence intensity (a.u.)
ATCCTGGTGAGCACATCCTCCGCCACCGCTGCCTGCTCCGCGGAGTCACCTAGTGCAG | 10300 fluorescence intensity (a.u.)
GGCGAGTTCTAAAATTATTTTTTTCATTCGTGTCCGAAAACGGAGTCACCTAGTGCAG | 9110 fluorescence intensity (a.u.)
CCTCCTTGATGAAGTCTGCTCTACTGCTTTCTTTCTTTCTCGGAGTCACCTAGTGCAG | 9190 fluorescence intensity (a.u.)
TTTTTTAATGGCACACCATCTCACCATCTGCCCTTTCTTACGGAGTCACCTAGTGCAG | 8550 fluorescence intensity (a.u.)
CGGCGAGAGGGGAATCAATCCTGAAGTGAGGGAGGGGAGGCGGAGTCACCTAGTGCAG | 8780 fluorescence intensity (a.u.)
TCCCTTATTTTCTTGCGCAATCATTACCCACAACCTCAAACGGAGTCACCTAGTGCAG | 14300 fluorescence intensity (a.u.)
CTCATCGAATCACAACCCTCCACCATTCACTTATACCTATCGGAGTCACCTAGTGCAG | 9320 fluorescence intensity (a.u.)
TCTCTGATGGATAGGTGACATGGTGTGGTGTGCTTGTTTTCGGAGTCACCTAGTGCAG | 9500 fluorescence intensity (a.u.)
TATAACCTTATCTTTTTCTTATACTTATGCTTATATTTATCGGAGTCACCTAGTGCAG | 8880 fluorescence intensity (a.u.)
CCACCATTTTTAATTTTTTTTAGCTGATATGTGGGCCCATCGGAGTCACCTAGTGCAG | 8910 fluorescence intensity (a.u.)

Source: paper PMC7819943, “Rice protein-binding microarrays: a tool to detect cis-acting elements near promoter regions in rice”
